In this test the test system is P388 leukemia ip, CD2F1 mice, survival T/C. In words: NCI In Vivo Anticancer Drug Screen. Data for tumor model P388 Leukemia (intraperitoneal) in CD2F1 (CDF1) mice. To be noted: T/C endpoint: median survival time, higher T/C = longer survival.
The mark [1] stands for this setting: dose: 200.0 mg/kg/injection, schedule: Q01DX009 (ip), vehicle: saline with Tween-80.
The mark [2] stands for this setting: dose: 12.5 mg/kg/injection, schedule: Q01DX009 (ip), vehicle: suspension in saline.
[3] abbreviates: dose: 25.0 mg/kg/injection, schedule: Q01DX009 (ip), vehicle: saline.
Setting [4] is: dose: 25.0 mg/kg/injection, schedule: Q01DX009 (ip), vehicle: water.
Setting [5] is: dose: 50.0 mg/kg/injection, schedule: Q01DX009 (ip), vehicle: water.
The mark [6] stands for this setting: dose: 25.0 mg/kg/injection, schedule: Q01DX009 (ip), vehicle: saline with Tween-80.
[7] abbreviates: dose: 50.0 mg/kg/injection, schedule: Q01DX009 (ip), vehicle: saline with Tween-80.
Setting [8] is: dose: 100.0 mg/kg/injection, schedule: Q01DX009 (ip), vehicle: saline with Tween-80.

The list is a part of this screen's results and no random one: it is rich in T/C values a quarter to a half above the control, in often repeated tests (any T/C) and in doses without a T/C. Other doses and runs of a compound stand elsewhere. T/C gives the treated animals as a percentage of the vehicle group. Some doses have a count of surviving animals in place of a T/C: the source holds a T/C of zero for them, seemingly a mark for toxic or unscored doses. Some doses without a T/C left all or most animals alive at the check, yet need not have been tolerated: the source hardly ever lists a survival T/C far under the control, and the zero likely stands for such cases as well. Survivors were counted at the toxicity check, usually on the fifth day, unless a day is given; later deaths do not show. Schedules are NCI's codes, read here as Q, the interval in days (D) or hours (H), X, the number of doses. Brackets with × count equal records among those shown. Some entries hold several experiments; the values are given in rising order. Where survival is the endpoint, this PubChem deposit counts one and a half times the control or more as active, and values a quarter to a half above the control carry no call in these data; other NCI protocols may use other cut-offs. Some T/C values carry the count of animals alive at the toxicity check (mostly the fifth day); without a count, all were alive then.

Take `N#Cc1c(N)nc2c(c1N)CC(CO)O2` (stereo unspecified): under setting [1], the survivor count is 6 of 6.
Consider `CCCCCCC(=O)OCCN1CCN(CC/C=C2\c3ccccc3Sc3ccc(C(F)(F)F)cc32)CC1`, for which the T/C reads like this: under setting [2], 132 % of control; (dose: 25.0 mg/kg/injection, schedule: Q01DX009 (ip), vehicle: suspension in saline) 134 % of control. The survivor count is, setting by setting: under setting [2], 5 of 6; under setting [3], 6 of 6.
Regarding `COc1cc(C/C(=C\c2ccc(OC)c(OCc3ccccc3)c2)[N+](=O)[O-])ccc1OCc1ccccc1`, the survivor count is, setting by setting: (dose: 75.0 mg/kg/injection, schedule: Q04DX003 (ip), vehicle: Klucel (hydroxypropylcellulose) (HPC)) 6 of 6; (dose: 150.0 mg/kg/injection, schedule: Q04DX003 (ip), vehicle: Klucel (hydroxypropylcellulose) (HPC)) 6 of 6; (dose: 300.0 mg/kg/injection, schedule: Q04DX003 (ip), vehicle: Klucel (hydroxypropylcellulose) (HPC)) 6 of 6.
For `COc1ccc2c(c1)CC[C@@H]1[C@@H]2CC[C@]2(C)C(=O)/C(=C/C=C/N(C)C)C[C@@H]12`, the survivor count is 6 of 6 (dose: 100.0 mg/kg/injection, schedule: Q01DX005 (ip), vehicle: saline with Tween-80) and 6 of 6 (dose: 200.0 mg/kg/injection, schedule: Q01DX005 (ip), vehicle: saline with Tween-80).
For `CCOC(=O)C(CO)NC(=O)c1cnc2ccccc2c1` (stereo unspecified), the survivor count (dose: 240.0 mg/kg/injection, schedule: Q01DX005 (ip), vehicle: saline with Tween-80) was 6 of 6.
In the case of `COC(=O)Nc1cnc(C=O)c(C)c1-c1ccc(OC)c(OC)c1OCc1ccccc1`, where the note is “dose: 200.0 mg/kg/injection, schedule: Q01DX009 (ip), vehicle: other”, the T/C is 125 % of control.
On to `O=C(c1ccccc1)C(CN1CCCC1)CN1CCCC1`, for which the survivor count runs as follows: (dose: 100.0 mg/kg/injection, schedule: Q01DX005 (ip), vehicle: saline) 0 of 6; (dose: 200.0 mg/kg/injection, schedule: Q01DX005 (ip), vehicle: saline) 0 of 6.
Take `COc1cc2c(cc1OC)-c1cc3cc(OC)c(OC)cc3c(C)[n+]1CC2` (tested in a mixture with another compound): the T/C was 125 % of control under setting [4] and 135 % of control under setting [5]. Also, the survivor count (dose: 100.0 mg/kg/injection, schedule: Q01DX009 (ip), vehicle: water) is given as 5 of 6.
As for `Nc1nc(=O)[nH]s1`, the survivor count (dose: 12.5 mg/kg/injection, schedule: Q01DX009 (ip), vehicle: saline with Tween-80) is given as 6 of 6; the survivor count under setting [7] is 3 of 6 (2×); the survivor count under setting [8] is 2 of 6 and 3 of 6. The T/C is 86, 87, 88, 101 % of control under setting [6]; 89 [5 of 6 alive] and 125 % of control under setting [7].
Take `COc1cccc2c1C(=O)c1c(O)c3c(c(O)c1C2=O)C[C@@](O)(C(=O)CN1CCOCC1)C[C@@H]3OC1CC(N)C(O)C(C)O1` (stereo partly specified): the T/C runs as follows: (dose: 1.56 mg/kg/injection, schedule: Q01DX009 (ip), vehicle: water) 139 % of control; (dose: 5.6 mg/kg/injection, schedule: Q01DX001 (ip), vehicle: water) 129 % of control; (dose: 7.5 mg/kg/injection, schedule: Q01DX001 (ip), vehicle: water) 126 % of control; (dose: 25.0 mg/kg/injection, schedule: Q01DX001 (ip), vehicle: water) 140 % of control; under setting [4], 134 % of control. The survivor count by setting is: (dose: 3.13 mg/kg/injection, schedule: Q01DX009 (ip), vehicle: water) 6 of 6; under setting [4], 6 of 6; under setting [5], 6 of 6; (dose: 200.0 mg/kg/injection, schedule: Q01DX001 (ip), vehicle: water) 1 of 6; (dose: 400.0 mg/kg/injection, schedule: Q01DX001 (ip), vehicle: water) 0 of 6.
For `CC([NH-])C[NH-].[I][Pt+2][I]` (stereo unspecified), the T/C is 143 and 148 % of control (dose: 25.0 mg/kg/injection, schedule: Q04DX002 (ip), vehicle: saline with Tween-80); 141 and 143 % of control (dose: 50.0 mg/kg/injection, schedule: Q04DX002 (ip), vehicle: saline with Tween-80).
With `COc1ccc(C/C(N)=N\O)cc1`, under “dose: 400.0 mg/kg/injection, schedule: Q01DX009 (ip), vehicle: Klucel (hydroxypropylcellulose) (HPC)”, the survivor count is recorded as 2 of 6.
Regarding `O=C(O)c1c[nH]c2ccc([N+](=O)[O-])cc2c1=O`, the survivor count is, setting by setting: (dose: 16.9 mg/kg/injection, schedule: Q01DX009 (ip), vehicle: Klucel (hydroxypropylcellulose) (HPC)) 2 of 6; (dose: 33.75 mg/kg/injection, schedule: Q01DX009 (ip), vehicle: Klucel (hydroxypropylcellulose) (HPC)) 4 of 6; (dose: 67.5 mg/kg/injection, schedule: Q01DX009 (ip), vehicle: Klucel (hydroxypropylcellulose) (HPC)) 3 of 6; (dose: 90.0 mg/kg/injection, schedule: Q01DX009 (ip), vehicle: Klucel (hydroxypropylcellulose) (HPC)) 0 of 6; (dose: 135.0 mg/kg/injection, schedule: Q01DX009 (ip), vehicle: Klucel (hydroxypropylcellulose) (HPC)) 3 of 6; (dose: 200.0 mg/kg/injection, schedule: Q01DX009 (ip), vehicle: Klucel (hydroxypropylcellulose) (HPC)) 5 of 6. Besides, the survivor count (dose: 300.0 mg/kg/injection, schedule: Q01DX009 (ip), vehicle: Klucel (hydroxypropylcellulose) (HPC)) was 2 of 6.
As for `C=C1CC[C@]2(C)CC[C@]3(C)C4=CC=C5C(=CC(=O)C(O)=C5C)[C@]4(C)CC[C@@]3(C)[C@@H]2C1`, the survivor count reads like this: (dose: 0.12 mg/kg/injection, schedule: Q01DX009 (ip), vehicle: saline with Tween-80) 6 of 6; (dose: 0.38 mg/kg/injection, schedule: Q01DX009 (ip), vehicle: none) 6 of 6; (dose: 1.0 mg/kg/injection, schedule: Q01DX009 (ip), vehicle: saline with Tween-80) 6 of 6; (dose: 2.0 mg/kg/injection, schedule: Q01DX009 (ip), vehicle: saline with Tween-80) 5 of 6; (dose: 4.0 mg/kg/injection, schedule: Q01DX009 (ip), vehicle: saline with Tween-80) 0 of 6; (dose: 8.0 mg/kg/injection, schedule: Q01DX009 (ip), vehicle: saline with Tween-80) 0 of 6. The T/C reads like this: (dose: 0.75 mg/kg/injection, schedule: Q01DX009 (ip), vehicle: none) 125 % of control; (dose: 1.0 mg/kg/injection, schedule: Q01DX009 (ip), vehicle: none) 147 % of control.
For `O=S(=O)([O][Hg][CH2]C1Cc2ccccc2O1)[O][Hg][CH2]C1Cc2ccccc2O1` (stereo unspecified), the T/C by setting is: (dose: 16.5 mg/kg/injection, schedule: Q01DX009 (ip), vehicle: saline with Tween-80) 136 % of control [5 of 6 alive]; under setting [6], 140 % of control [4 of 6 alive]. In addition, the survivor count (dose: 37.5 mg/kg/injection, schedule: Q01DX009 (ip), vehicle: saline with Tween-80) was 2 of 6.
Turning to `COc1ccc(N2CSC(=S)N(c3ccc(OC)cc3)C2)cc1`, the survivor count under setting [8] is 6 of 6 and the survivor count under setting [1] is recorded as 6 of 6.
Take `COc1cc(NCCCCCCCNC(C)C)c2nccc(C)c2c1`: the survivor count under setting [3] is on record as 6 of 6.

(Values after PubChem BioAssay AID330 (DTP/NCI, 2004).)
